In patent US20260209270A1, “Synthetic Peptide And Construct” (TOAGOSEI CO., LTD., priority 2022, published 2026):
Some of these results come from one statement about several compounds together.

These substances were tested on NSC-34 cells (assay: Evaluation of cell membrane permeability by flow cytometry (MFI of FAM fluorescence)). Settings: Test 1; 20 μM.
Assay type: cell-based, mouse
Description: As a culture medium of the NSC-34 cell, 10% fetal bovine serum (FBS)-containing Dulbecco's modified Eagle's medium (DMEM (Cat No. 044-29765, manufactured by FUJIFILM Wako Pure Chemical Corporation)) was used. The samples 1 to 6 were each dissolved in dimethyl sulfoxide (DMSO) to prepare sample solutions 1 to 6 with a sample concentration of 4 mM. Then, the sample solutions were diluted in the culture medium to prepare 40 μM sample solutions 1 to 6.
The NSC-34 cell was suspended in the culture medium to prepare a cell suspension of 2×10^5 cells/mL. The cell suspension was added by 1 mL to a well of a commercially available six-hole (well) plate (manufactured by AGC TECHNO GLASS Co., Ltd.) so as to seed the NSC-34 cell to be 2× 10^5 cells/well. […] After that, the six-well plate was left at rest in a cell culture apparatus, and incubated for 20 hours at 37° C. under a 5% CO2 condition.
After the 20-hour incubation, the culture supernatant was removed from the well and the cells in the well were cleaned twice with 1 mL of PBS. Next, 100 μL of the 0.25% trypsin/EDTA solution was added to the well and the incubation was performed for three minutes at 37° C. After the incubation, 900 μL of the culture medium was added to the well to deactivate the trypsin. Subsequently, the cell suspension in the well was transferred to a tube and the cells were collected. This tube was subjected to five-minute centrifugal separation at 4° C. under a condition of 210×g. After the centrifugal separation, the supernatant was removed and the precipitate (cell pellet) was suspended (cleaned) with 1 mL of PBS, which was followed by the centrifugal separation under the same condition as that described above. After this operation was repeated twice, the supernatant was removed and thus, the cells (cell pellet) cultured in the culture medium containing the sample 1 were obtained.
Regarding the obtained cells (cell pellet), the cell membrane permeability of the sample 1 was analyzed using a flow cytometer. As the flow cytometer, On-Chip Flowcytometer (manufactured by On-Chip Biotechnologies Co., LTD.) was used.
For such an analysis, the obtained cell pellet was suspended with 100 μL of on-chip T buffer to prepare a cell suspension for analysis.
Using the aforementioned flow cytometer, gating based on forward scatter (FSC) and side scatter (SSC) was performed to set a gate about a cell group to be analyzed, and the fluorescence intensity was measured about the cell group in this gate. Note that the number of cells of the cell group was set to at least 10000 or more in the analysis. The fluorescence intensity was measured using a fluorescence detector FL2 of the flow cytometer (optimum detection wavelength around 543 nm) capable of detecting the fluorescence wavelength of FAM. Regarding this measurement result, the analysis was performed using commercially available analysis software “FlowJo” (manufactured by TreeStar) to obtain mean fluorescence intensity (MFI) of the cell group to be measured. […]

| Substance | value of MFI compared with Reference Example 1 (FAM alone) |
| --- | --- |
| Ac-PDPEG-FAM [Example 3] | higher |
| Ac-PEPE-FAM [Example 2] | higher |
| Ac-PEPDG-FAM [Example 4] | higher |

Same assay, conditions: Test 1; concluded from MFI versus FAM alone, 20 μM

| Substance | cell membrane permeability (in words) |
| --- | --- |
| PDPD [compound 1] | have the cell membrane permeability |
| PEPE [compound 2] | have the cell membrane permeability |
| PDPEG [compound 3] | have the cell membrane permeability |
| PEPDG [compound 4] | have the cell membrane permeability |

Same assay, conditions: Test 2; 25 μM

| Substance | value of MFI compared with Reference Example 2 (FAM alone) |
| --- | --- |
| Ac-PEPEPEPEPEPEG-FAM (N-terminal acetyl; C-terminal FAM) [Example 8, construct: N-terminally acetylated peptide 8 bonded to FAM] | drastically higher |
| Ac-PDPEPDPEPDPEG-FAM (N-terminal acetyl; C-terminal FAM) [Example 9, construct: N-terminally acetylated peptide 9 bonded to FAM] | drastically higher |
| Ac-PDPDPDPDPDPDG-FAM (N-terminal acetyl; C-terminal FAM) [Example 7, construct: N-terminally acetylated peptide 7 bonded to FAM] | drastically higher |

Same assay, conditions: Test 2; concluded from MFI versus FAM alone, 25 μM

| Substance | cell membrane permeability (in words) |
| --- | --- |
| PDPEPDPEPDPEG [compound 9] | have the excellent cell membrane permeability |
| PDPDPDPDPDPDG [compound 7] | have the excellent cell membrane permeability |
| PEPEPEPEPEPEG [compound 8] | have the excellent cell membrane permeability |
